Data taken from PubChem BioAssay AID1159506, deposited by NCATS (2015).

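Luminescence from an EWS-FLI1 target-promoter (NR0B1) reporter, set against a CMV-promoter reporter, two days after silencing single genes in TC32 Ewing sarcoma cells. Each siRNA was applied at 20 nM. A z-score of the log NR0B1-over-CMV signal, less the median of siRNAs with the same seed; more negative means a stronger specific loss of the NR0B1 reporter.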

This is part of the screen; most of the strongest results are not listed here. Sequences are the guide (antisense) strand, without overhang.

For UUCUGAACUACAGCAGUCA against RPS3 the result was seed-corrected z-score 2.669. UGCUUUCUCAAUAACCAGG against CAPN11 read seed-corrected z-score -1.265. AAAGAUUUGAGACUUUAUU against NTN5 read seed-corrected z-score 1.022. UGACAUCCUGUUUCGGUCC against GNA14 gave seed-corrected z-score -0.1835. AAUCGGUGAACAAAGUUUC against DACH2 gave seed-corrected z-score 0.06624. UAGGGUGAAGCCGAUGAGU against TMEM37 gave seed-corrected z-score 0.5193.

With UUUCGAAGAAGUAAAGUAG against KANSL1L the assay gave seed-corrected z-score 0.7849. Result for UUUACUGCUAUUCAUGUAG against FMNL2 was seed-corrected z-score -0.432. With UCCAGUUUCAGGCAGGUCU against PSORS1C2 the assay gave seed-corrected z-score 1.895. For UUCGGUACAUGGAUUAUGC against SIPA1L2 the result was seed-corrected z-score 0.2458. For UCAAGUACCGAACAUUUUC against TPTE the result was seed-corrected z-score 0.0837. With UUAGCCUUACCUGUGCUCC against HSPA6 the assay gave seed-corrected z-score 0.002379.

Result for UCCGUUUAGAGUCGCAGUC against KLHL21 was seed-corrected z-score 1.2. AGUAGUAGAAGAUCAGGGC against P2RY1 read seed-corrected z-score -0.9606. Result for UAAGCCGUGAACUACAACC against ZNF7 was seed-corrected z-score -0.834. UUUGAUACUGACGAUUGCG against CCNB1IP1 gave seed-corrected z-score 0.6606. AUUUGUACUUGGACCACUG against PPIH gave seed-corrected z-score -0.6703. Result for AACAGCUUUAUCCUUGUCU against OR3A1 was seed-corrected z-score 0.07383.

For UAUGAUGUUUACAUCAUCG against NOMO2 the result was seed-corrected z-score 0.2013. For UCUUUACUUACCUGUCUGC against HES7 the result was seed-corrected z-score 0.4932. For AAAGUCACAUGAGAGGUGG against MUC3B the result was seed-corrected z-score -0.1035. UGGUGGAUAAUUCCCAAGG against MPZL1 gave seed-corrected z-score -0.6272. Result for UGUCCAGACAGGUAUUGCC against SIRPB2 was seed-corrected z-score -0.777. For AAAGUAAACAUGGAUUUGC against SYNPO the result was seed-corrected z-score 0.4027.

Result for UUUCAUUAAGGCUAAGUUC against TLE4 was seed-corrected z-score 0.2836. With AAAAUAGUUGUCCAAAGGC against TPK1 the assay gave seed-corrected z-score -0.31. Result for UUGUCAAUCAUGUCUAUAC against ARNTL was seed-corrected z-score -0.5428. UUUGGUGCAGGUGAGACCG against SSPO gave seed-corrected z-score -1.886. For UUUGCUCACACCGACACUG against EBLN1 the result was seed-corrected z-score -0.5182. With UAUUUUAGUACACCUUUUC against WFDC9 the assay gave seed-corrected z-score 0.2542.

UUUGAGAUGAACUGCGCGG against SNX15 gave seed-corrected z-score 0.4467. With AAUGUAUCCAUGUAGAUAC against GHITM the assay gave seed-corrected z-score 0.1989. UCCCAUUCCAGAUUCGACC against KCNK15 read seed-corrected z-score -0.06926. Result for UCAACUGUAAAGAUCCAUC against METTL4 was seed-corrected z-score 1.83. Result for UCCAUAGUAACGGUUGACC against ITPR1 was seed-corrected z-score -1.531.

The first 4 entries again:

| siRNA | gene | seed-corrected z-score |
|---|---|---|
| `UUCUGAACUACAGCAGUCA` | RPS3 | 2.669 |
| `UGCUUUCUCAAUAACCAGG` | CAPN11 | -1.265 |
| `AAAGAUUUGAGACUUUAUU` | NTN5 | 1.022 |
| `UGACAUCCUGUUUCGGUCC` | GNA14 | -0.1835 |